# Results published in the supplement of paper PMC10849652.
# Sequences of proteins named here, by UniProt entry; tags and fusion partners are left off. A change or cut given only in a name is not applied to a line headed by its entry.
# UniProt Q92879: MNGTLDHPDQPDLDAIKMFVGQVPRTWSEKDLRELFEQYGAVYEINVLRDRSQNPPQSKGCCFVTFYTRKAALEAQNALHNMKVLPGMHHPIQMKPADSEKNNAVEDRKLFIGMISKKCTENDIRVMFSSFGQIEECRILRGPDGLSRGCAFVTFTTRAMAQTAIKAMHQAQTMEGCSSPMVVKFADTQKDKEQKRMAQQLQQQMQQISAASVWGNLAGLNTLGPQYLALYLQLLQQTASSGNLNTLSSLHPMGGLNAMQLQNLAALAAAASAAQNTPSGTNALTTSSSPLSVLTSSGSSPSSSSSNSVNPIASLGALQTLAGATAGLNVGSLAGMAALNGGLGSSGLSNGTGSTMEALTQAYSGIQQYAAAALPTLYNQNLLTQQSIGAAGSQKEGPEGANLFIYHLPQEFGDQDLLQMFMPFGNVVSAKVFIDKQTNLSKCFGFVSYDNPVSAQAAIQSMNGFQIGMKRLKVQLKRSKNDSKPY
# UniProt Q9BUK0: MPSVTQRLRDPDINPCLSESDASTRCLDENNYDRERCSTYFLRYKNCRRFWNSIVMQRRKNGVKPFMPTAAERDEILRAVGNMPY
# UniProt Q9UKY7: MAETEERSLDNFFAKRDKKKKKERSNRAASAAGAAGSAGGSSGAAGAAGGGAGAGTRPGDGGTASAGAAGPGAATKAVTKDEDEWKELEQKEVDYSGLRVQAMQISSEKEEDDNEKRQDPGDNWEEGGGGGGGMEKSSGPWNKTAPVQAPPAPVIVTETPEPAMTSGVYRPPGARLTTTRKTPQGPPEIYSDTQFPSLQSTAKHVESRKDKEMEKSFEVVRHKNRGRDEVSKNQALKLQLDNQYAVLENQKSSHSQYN
# UniProt Q9BWS9: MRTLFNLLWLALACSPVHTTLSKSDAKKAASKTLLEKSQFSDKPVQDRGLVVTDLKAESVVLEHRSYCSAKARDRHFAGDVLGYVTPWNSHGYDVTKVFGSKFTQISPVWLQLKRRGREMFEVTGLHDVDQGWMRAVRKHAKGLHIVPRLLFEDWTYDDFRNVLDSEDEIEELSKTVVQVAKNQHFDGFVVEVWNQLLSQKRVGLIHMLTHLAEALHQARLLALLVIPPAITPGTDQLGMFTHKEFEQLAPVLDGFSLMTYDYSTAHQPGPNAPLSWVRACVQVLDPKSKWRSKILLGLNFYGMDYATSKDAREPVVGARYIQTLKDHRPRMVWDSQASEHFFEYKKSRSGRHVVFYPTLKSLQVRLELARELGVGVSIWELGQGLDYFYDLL
# UniProt O43633: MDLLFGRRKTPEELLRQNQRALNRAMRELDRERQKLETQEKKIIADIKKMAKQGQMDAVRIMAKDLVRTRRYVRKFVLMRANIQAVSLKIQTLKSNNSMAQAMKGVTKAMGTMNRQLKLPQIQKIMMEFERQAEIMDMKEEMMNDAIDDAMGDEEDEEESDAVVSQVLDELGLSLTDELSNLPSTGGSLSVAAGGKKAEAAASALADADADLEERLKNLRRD
# UniProt Q9UKJ5: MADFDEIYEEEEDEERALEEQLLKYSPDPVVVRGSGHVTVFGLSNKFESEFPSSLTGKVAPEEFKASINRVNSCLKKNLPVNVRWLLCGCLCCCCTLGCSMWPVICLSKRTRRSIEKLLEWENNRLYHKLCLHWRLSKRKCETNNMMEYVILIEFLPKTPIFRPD
# UniProt Q9Y5P4: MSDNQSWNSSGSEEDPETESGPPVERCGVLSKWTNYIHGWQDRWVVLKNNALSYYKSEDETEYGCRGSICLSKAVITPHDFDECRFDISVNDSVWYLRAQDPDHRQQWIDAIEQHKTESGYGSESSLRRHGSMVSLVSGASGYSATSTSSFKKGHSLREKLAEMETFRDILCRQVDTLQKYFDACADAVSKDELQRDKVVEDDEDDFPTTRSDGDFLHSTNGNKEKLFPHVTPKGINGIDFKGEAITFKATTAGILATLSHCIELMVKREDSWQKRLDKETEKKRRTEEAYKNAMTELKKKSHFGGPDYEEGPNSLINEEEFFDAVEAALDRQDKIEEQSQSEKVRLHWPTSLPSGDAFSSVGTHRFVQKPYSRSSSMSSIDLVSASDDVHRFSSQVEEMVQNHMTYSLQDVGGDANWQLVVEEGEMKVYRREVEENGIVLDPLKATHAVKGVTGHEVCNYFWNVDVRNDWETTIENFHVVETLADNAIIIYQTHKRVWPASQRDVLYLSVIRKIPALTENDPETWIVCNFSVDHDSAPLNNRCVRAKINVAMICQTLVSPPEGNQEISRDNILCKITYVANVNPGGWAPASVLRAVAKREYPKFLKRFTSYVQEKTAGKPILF
# UniProt Q8TAP6: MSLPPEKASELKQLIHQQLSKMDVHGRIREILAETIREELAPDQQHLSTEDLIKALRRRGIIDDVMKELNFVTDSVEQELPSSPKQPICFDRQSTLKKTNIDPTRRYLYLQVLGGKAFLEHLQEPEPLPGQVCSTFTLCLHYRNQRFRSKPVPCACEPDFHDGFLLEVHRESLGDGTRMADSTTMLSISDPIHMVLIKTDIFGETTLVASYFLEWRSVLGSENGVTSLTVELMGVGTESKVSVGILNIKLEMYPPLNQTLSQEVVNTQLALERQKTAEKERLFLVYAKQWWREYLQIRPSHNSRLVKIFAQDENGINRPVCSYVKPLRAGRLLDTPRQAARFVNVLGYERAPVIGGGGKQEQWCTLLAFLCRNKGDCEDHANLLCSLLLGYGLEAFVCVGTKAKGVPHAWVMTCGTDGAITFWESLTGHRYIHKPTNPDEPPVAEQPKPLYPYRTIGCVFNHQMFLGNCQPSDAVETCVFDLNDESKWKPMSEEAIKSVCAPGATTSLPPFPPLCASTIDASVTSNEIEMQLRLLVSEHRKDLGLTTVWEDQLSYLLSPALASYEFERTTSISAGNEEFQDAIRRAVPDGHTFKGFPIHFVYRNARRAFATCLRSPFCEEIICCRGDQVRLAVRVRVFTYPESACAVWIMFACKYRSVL
# UniProt P23528, whole entry, looked up: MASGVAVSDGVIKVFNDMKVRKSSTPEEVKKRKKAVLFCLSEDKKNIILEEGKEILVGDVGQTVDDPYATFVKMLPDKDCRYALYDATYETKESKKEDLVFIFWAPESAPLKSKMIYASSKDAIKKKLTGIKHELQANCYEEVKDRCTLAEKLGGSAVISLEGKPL
# UniProt Q03701: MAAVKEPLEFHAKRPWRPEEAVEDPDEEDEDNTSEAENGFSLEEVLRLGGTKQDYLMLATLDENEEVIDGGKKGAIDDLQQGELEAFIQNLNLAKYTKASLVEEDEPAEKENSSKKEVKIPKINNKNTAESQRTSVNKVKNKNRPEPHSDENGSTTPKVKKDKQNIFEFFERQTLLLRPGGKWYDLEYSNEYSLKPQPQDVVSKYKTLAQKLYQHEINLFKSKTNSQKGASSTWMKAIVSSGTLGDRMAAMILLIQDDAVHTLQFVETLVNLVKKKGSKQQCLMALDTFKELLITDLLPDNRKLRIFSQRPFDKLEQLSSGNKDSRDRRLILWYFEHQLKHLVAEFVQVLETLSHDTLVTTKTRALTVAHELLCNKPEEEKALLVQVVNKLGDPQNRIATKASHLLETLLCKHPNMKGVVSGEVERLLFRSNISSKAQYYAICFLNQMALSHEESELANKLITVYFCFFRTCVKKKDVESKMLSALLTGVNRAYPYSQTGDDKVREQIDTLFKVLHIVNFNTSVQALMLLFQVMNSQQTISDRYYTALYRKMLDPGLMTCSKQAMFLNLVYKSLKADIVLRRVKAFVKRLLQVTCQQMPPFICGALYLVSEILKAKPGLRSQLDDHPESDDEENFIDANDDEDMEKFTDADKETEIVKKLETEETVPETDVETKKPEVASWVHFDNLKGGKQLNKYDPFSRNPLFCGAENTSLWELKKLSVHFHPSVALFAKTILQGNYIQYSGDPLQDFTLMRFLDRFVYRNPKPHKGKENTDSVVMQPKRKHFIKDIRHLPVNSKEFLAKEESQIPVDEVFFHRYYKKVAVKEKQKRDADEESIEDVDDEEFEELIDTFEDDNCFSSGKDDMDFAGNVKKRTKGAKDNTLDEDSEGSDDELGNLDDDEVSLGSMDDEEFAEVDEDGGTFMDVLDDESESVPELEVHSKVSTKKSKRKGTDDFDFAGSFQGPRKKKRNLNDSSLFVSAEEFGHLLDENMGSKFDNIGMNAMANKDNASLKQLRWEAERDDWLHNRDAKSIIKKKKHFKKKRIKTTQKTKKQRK
# UniProt Q8N5B7: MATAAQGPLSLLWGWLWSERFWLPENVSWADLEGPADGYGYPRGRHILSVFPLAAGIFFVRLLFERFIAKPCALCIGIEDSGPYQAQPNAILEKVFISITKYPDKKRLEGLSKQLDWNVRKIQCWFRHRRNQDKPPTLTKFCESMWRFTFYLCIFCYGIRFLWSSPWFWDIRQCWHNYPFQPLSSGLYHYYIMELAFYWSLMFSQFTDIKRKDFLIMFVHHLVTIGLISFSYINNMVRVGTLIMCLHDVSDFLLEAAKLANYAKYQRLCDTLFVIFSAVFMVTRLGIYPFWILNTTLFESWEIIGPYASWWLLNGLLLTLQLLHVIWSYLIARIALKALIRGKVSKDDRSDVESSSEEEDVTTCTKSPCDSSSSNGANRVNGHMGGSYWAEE
# UniProt Q6ZMG9: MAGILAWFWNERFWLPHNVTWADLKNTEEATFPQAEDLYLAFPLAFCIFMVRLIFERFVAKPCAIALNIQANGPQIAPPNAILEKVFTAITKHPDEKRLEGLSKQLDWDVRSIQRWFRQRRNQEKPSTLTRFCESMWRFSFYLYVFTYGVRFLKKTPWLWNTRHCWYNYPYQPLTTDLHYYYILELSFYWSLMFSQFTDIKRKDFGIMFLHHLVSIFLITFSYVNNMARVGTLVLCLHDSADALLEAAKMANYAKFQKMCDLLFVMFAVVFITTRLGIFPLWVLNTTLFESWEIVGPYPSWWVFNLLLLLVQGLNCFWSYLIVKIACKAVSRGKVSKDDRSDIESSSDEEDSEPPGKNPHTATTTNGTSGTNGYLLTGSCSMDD
# UniProt P00751, whole entry, looked up: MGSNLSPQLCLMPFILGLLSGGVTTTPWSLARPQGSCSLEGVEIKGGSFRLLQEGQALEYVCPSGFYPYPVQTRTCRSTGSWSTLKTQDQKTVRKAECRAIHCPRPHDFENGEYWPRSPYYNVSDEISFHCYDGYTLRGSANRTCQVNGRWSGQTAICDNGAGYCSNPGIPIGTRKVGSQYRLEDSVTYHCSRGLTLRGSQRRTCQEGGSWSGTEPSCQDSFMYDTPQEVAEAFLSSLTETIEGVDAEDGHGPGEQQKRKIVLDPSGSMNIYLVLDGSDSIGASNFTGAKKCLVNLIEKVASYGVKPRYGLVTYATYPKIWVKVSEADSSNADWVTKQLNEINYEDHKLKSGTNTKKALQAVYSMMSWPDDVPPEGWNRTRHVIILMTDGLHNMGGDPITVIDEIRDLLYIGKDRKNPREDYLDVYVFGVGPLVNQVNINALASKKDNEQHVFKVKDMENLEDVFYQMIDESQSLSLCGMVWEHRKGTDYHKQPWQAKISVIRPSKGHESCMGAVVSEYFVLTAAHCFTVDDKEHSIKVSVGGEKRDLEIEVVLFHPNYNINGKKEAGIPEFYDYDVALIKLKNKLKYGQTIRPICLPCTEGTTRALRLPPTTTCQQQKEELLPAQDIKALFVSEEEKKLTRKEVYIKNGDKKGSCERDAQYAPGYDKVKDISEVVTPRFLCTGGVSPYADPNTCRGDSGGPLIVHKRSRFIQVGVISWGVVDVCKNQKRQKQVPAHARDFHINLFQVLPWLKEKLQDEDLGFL
# UniProt Q9Y3E7, whole entry, looked up: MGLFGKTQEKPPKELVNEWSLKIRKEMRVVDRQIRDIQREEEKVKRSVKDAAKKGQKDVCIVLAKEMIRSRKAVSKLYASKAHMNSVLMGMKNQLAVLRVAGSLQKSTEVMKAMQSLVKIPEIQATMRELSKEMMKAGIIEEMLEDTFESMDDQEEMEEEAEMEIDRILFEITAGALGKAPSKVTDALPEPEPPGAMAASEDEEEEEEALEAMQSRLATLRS
# UniProt P41208: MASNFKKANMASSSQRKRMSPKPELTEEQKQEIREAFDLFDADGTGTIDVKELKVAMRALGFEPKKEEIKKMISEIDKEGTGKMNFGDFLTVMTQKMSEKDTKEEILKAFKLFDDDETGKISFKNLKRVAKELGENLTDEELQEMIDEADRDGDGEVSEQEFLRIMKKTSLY
# UniProt Q00587: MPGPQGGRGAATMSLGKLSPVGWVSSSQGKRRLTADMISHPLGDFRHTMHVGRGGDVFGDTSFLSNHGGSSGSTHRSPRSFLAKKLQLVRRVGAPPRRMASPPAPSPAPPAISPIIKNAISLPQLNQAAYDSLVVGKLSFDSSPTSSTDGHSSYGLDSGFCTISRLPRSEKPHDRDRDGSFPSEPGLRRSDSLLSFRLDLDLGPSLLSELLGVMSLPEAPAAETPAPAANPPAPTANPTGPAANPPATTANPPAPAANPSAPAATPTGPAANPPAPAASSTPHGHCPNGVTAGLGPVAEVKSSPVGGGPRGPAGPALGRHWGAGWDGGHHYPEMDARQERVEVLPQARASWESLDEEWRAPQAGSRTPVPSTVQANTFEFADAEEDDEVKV
# The other results are listed elsewhere or left out.
# Tests used:
# Assay in all cases: log2 fold change, soluble protein after heating vs DMSO (PISA); higher = thermal stabilisation; K562 cells, 10 uM, 30 min; active = over 0.2 and 3.5 SD of the protein, either way, in both replicates (recomputed)
# [1] = compound: CN1CCN(CCOc2cc(OC3CCOCC3)c3c(Nc4c(Cl)ccc5c4OCO5)ncnc3c2)CC1 [saracatinib]
# In short: (§1)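 K562 cells (2×10^6 cells/mL) were treated with 10 μM compound for 30 min, and aliquots were heated for 3 min over 48°C-58°C. Pooled aliquots were extracted in PBS with 0.5% NP-40 at 4°C, and the supernatant after 21,000xg for 90 min was measured by TMTpro 16plex LC-MS/MS with channel sums equalised. Reported thermal stability, relative to control samples and from duplicates, is a log2 fold change.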
# [2] = compound: CN1CCN(c2nc(C3=C(c4c[nH]c5ccccc45)C(=O)NC3=O)c3ccccc3n2)CC1 [sotrastaurin]
# In short: as §1
# [3] = compound: CN1CC[C@H](c2c(O)cc(O)c3c(=O)cc(-c4ccccc4Cl)oc23)[C@H](O)C1 [alvocidib]
# In short: as §1
# [4] = compound: CN1CCc2c(c3ccccc3n2Cc2ccc(C(=O)NO)cc2)C1 [Tubastatin A]
# In short: as §1
# [5] = compound: CNC(=O)C1=CC=CC=C1NC2=NC(=NC=C2Cl)NC3=C(C=C(C=C3)N4CCOCC4)OC
# In short: as §1
# [6] = compound: CNC(=O)c1ccc(Nc2ncc(C(F)(F)F)c(NCc3nccnc3N(C)S(C)(=O)=O)n2)cc1 [defactinib]
# In short: as §1
# [7] = compound: CNCc1ccc(-c2[nH]c3cc(F)cc4c3c2CCNC4=O)cc1 [rucaparib]
# In short: as §1
# [8] = compound: CNc1nc(-c2ccc3c(N)n[nH]c3c2)cc(N2C[C@@H](C(=O)NC3CCCCC3)CC[C@H]2C)n1
# In short: as §1
# [9] = compound: COC(=O)N[C@@H](C)CNc1nccc(-c2cn(C(C)C)nc2-c2cc(Cl)cc(NS(C)(=O)=O)c2F)n1 [encorafenib]
# In short: as §1
# [10] = compound: COC(=O)[C@H](CCSC)NC(=O)C1=C(C=C(C=C1)NC[C@H](CS)N)C2=CC=CC=C2
# In short: as §1
Target,log2 fold change [1],log2 fold change [2],log2 fold change [3],log2 fold change [4],log2 fold change [5],log2 fold change [6],log2 fold change [7],log2 fold change [8],log2 fold change [9],log2 fold change [10]
CHD5 (UniProt Q8TDI0),inactive: -0.05,inactive: -0.369,inactive: -0.197,inactive: 0.112,inactive: 0.032,inactive: -0.26,inactive: 0.208,inactive: 0.079,inactive: 0.174,inactive: -0.167
CDIPT (UniProt O14735),inactive: -0.013,inactive: 0.218,inactive: 0.004,inactive: -0.089,inactive: -0.008,inactive: -0.043,inactive: 0.028,inactive: -0.044,inactive: 0.041,inactive: 0.112
CELF1 isoform 4 (UniProt Q92879),inactive: -0.002,inactive: -0.103,inactive: -0.127,inactive: 0.06,inactive: -0.008,inactive: -0.032,inactive: 0.107,inactive: 0.035,inactive: 0.076,inactive: -0.105
CHCHD7 isoform 4 (UniProt Q9BUK0),inactive: -0.029,inactive: 0.034,inactive: -0.048,inactive: -0.058,inactive: -0.068,inactive: -0.131,inactive: 0.013,inactive: -0.067,inactive: -0.017,inactive: 0.083
CFDP1 (UniProt Q9UEE9),inactive: 0.062,inactive: 0.042,inactive: -0.007,inactive: -0.036,inactive: -0.047,inactive: -0.027,inactive: -0.014,inactive: -0.072,inactive: -0.028,inactive: 0.019
CHML (UniProt P26374),inactive: 0,inactive: 0.035,inactive: -0.053,inactive: -0.033,inactive: -0.013,inactive: -0.01,inactive: -0.059,inactive: -0.019,inactive: 0,inactive: -0.007
CDV3 (UniProt Q9UKY7),inactive: 0.009,inactive: -0.02,inactive: -0.033,inactive: -0.023,inactive: -0.051,inactive: -0.025,inactive: -0.047,inactive: -0.018,inactive: -0.02,inactive: 0.007
CHID1 (UniProt Q9BWS9),inactive: -0.088,inactive: -0.059,inactive: 0.058,inactive: 0.016,inactive: 0.007,inactive: 0.065,inactive: 0.036,inactive: -0.005,inactive: 0.043,inactive: 0.016
CDK2 (UniProt P24941),inactive: -0.026,inactive: 0,inactive: 0.004,inactive: -0.025,inactive: 0.02,inactive: 0.028,inactive: 0.018,inactive: -0.048,inactive: -0.01,inactive: 0.006
CHMP2A (UniProt O43633),inactive: 0.062,inactive: 0.011,inactive: -0.05,inactive: 0.019,inactive: -0.008,inactive: -0.014,inactive: -0.061,inactive: -0.015,inactive: 0.03,inactive: -0.026
CEPT1 (UniProt Q9Y6K0),inactive: 0.015,inactive: 0.033,–,inactive: 0.042,inactive: 0.001,inactive: -0.005,inactive: -0.126,inactive: -0.056,inactive: 0.052,inactive: -0.056
CHIC2 (UniProt Q9UKJ5),inactive: -0.107,inactive: 0.106,inactive: 0.041,–,inactive: 0.046,inactive: -0.101,inactive: -0.041,inactive: 0.05,inactive: -0.037,inactive: 0.028
CERT isoform 3 (UniProt Q9Y5P4),inactive: 0.033,inactive: 0.014,–,inactive: -0.105,inactive: 0.131,inactive: -0.097,inactive: -0.009,inactive: 0.116,inactive: -0.015,inactive: 0.047
CENPO (UniProt Q9BU64),inactive: -0.258,inactive: -0.098,inactive: -0.078,inactive: 0.122,inactive: 0.057,inactive: -0.236,inactive: 0.023,inactive: 0.107,inactive: 0,inactive: -0.011
CDK16 isoform 2 (UniProt Q00536),inactive: -0.014,inactive: 0.246,–,inactive: 0.014,inactive: 0.027,inactive: 0.236,inactive: 0.278,inactive: -0.102,inactive: 0.016,inactive: -0.146
CEP76 (UniProt Q8TAP6),inactive: 0.013,inactive: 0.06,inactive: 0.084,inactive: 0.019,inactive: -0.011,inactive: -0.092,inactive: -0.048,inactive: -0.038,inactive: -0.012,inactive: -0.005

# Complete entries from above. Values in the order: log2 fold change [1] | log2 fold change [2] | log2 fold change [3] | log2 fold change [4] | log2 fold change [5] | log2 fold change [6] | log2 fold change [7] | log2 fold change [8] | log2 fold change [9] | log2 fold change [10]
# CHMP2A (UniProt O43633) is listed as inactive: 0.062 | inactive: 0.011 | inactive: -0.05 | inactive: 0.019 | inactive: -0.008 | inactive: -0.014 | inactive: -0.061 | inactive: -0.015 | inactive: 0.03 | inactive: -0.026
# CHCHD7 isoform 4 (UniProt Q9BUK0) is listed as inactive: -0.029 | inactive: 0.034 | inactive: -0.048 | inactive: -0.058 | inactive: -0.068 | inactive: -0.131 | inactive: 0.013 | inactive: -0.067 | inactive: -0.017 | inactive: 0.083

# (further entries)

Target,log2 fold change [1],log2 fold change [2],log2 fold change [3],log2 fold change [4],log2 fold change [5],log2 fold change [6],log2 fold change [7],log2 fold change [8],log2 fold change [9],log2 fold change [10]
CDK13 (UniProt Q14004),inactive: -0.133,inactive: -0.121,–,inactive: 0.042,inactive: -0.071,inactive: -0.01,inactive: 0.06,inactive: -0.129,inactive: 0.104,inactive: 0.036
CDK1 (UniProt P06493),inactive: 0.007,inactive: -0.045,–,inactive: 0.018,inactive: -0.043,inactive: -0.118,inactive: 0.013,inactive: 0.01,inactive: -0.01,inactive: 0.003
CEP135 (UniProt Q66GS9),inactive: -0.142,inactive: -0.305,inactive: 0.116,–,–,–,inactive: 0.072,inactive: 0.437,inactive: -0.189,–
CFL1 (UniProt P23528),inactive: 0.075,inactive: -0.026,inactive: -0.079,inactive: -0.024,inactive: 0.113,inactive: -0.008,inactive: -0.042,inactive: -0.013,inactive: -0.028,inactive: 0.003
CDK7 (UniProt P50613),inactive: 0.009,inactive: -0.016,inactive: 0.026,inactive: -0.018,inactive: -0.055,inactive: -0.012,inactive: 0.003,inactive: -0.096,inactive: 0.005,inactive: 0.08
CDKAL1 (UniProt Q5VV42),inactive: -0.082,inactive: 0.025,inactive: 0.051,inactive: -0.162,inactive: -0.018,inactive: -0.074,inactive: 0.024,inactive: 0.054,inactive: 0,inactive: -0.001
CEBPZ (UniProt Q03701),inactive: -0.163,inactive: 0.147,inactive: -0.005,inactive: 0.01,–,inactive: 0,–,inactive: 0.071,–,inactive: -0.193
CERS5 (UniProt Q8N5B7),inactive: 0.024,inactive: -0.026,inactive: -0.008,inactive: -0.049,inactive: -0.055,inactive: -0.028,inactive: 0.032,inactive: -0.029,inactive: -0.064,inactive: 0.068
CDK8 (UniProt P49336),inactive: -0.006,inactive: 0.074,active: 0.66,inactive: -0.1,inactive: 0.053,inactive: -0.059,inactive: 0.192,inactive: 0.018,inactive: -0.002,inactive: 0.064
CERS6 isoform 2 (UniProt Q6ZMG9),inactive: 0.033,inactive: 0.07,inactive: 0.053,inactive: -0.04,inactive: 0.004,inactive: -0.004,inactive: -0.087,inactive: -0.058,inactive: 0.069,inactive: 0.007
CFB (UniProt P00751),inactive: 0.211,inactive: 0.183,inactive: 0.031,–,inactive: 0.152,inactive: 0.057,inactive: 0.173,inactive: -0.088,inactive: -0.288,inactive: 0.192
CDYL (UniProt Q9Y232),inactive: -0.007,inactive: 0.014,inactive: -0.028,inactive: 0.034,inactive: -0.007,inactive: -0.075,inactive: -0.067,inactive: 0.022,inactive: 0.015,inactive: 0.056
CHMP3 (UniProt Q9Y3E7),inactive: 0.002,inactive: -0.051,inactive: -0.097,inactive: 0.016,inactive: 0.067,inactive: -0.008,inactive: -0.002,inactive: -0.089,inactive: -0.027,inactive: 0.051
CETN2 (UniProt P41208),inactive: 0.095,inactive: 0.077,–,inactive: -0.128,inactive: -0.03,inactive: -0.054,inactive: 0.031,inactive: 0.058,inactive: -0.079,inactive: 0.06
CDC42EP1 (UniProt Q00587),inactive: -0.017,inactive: 0.025,–,inactive: 0.001,inactive: -0.303,inactive: -0.144,inactive: -0.002,inactive: 0.016,inactive: -0.017,inactive: 0.007
